The results in this text go back to article PMC7819943, “Rice protein-binding microarrays: a tool to detect cis-acting elements near promoter regions in rice”.

The chains behind the UniProt entries cited, without tags or fusion partners.
UniProt Q0JBA9, entry or part of it: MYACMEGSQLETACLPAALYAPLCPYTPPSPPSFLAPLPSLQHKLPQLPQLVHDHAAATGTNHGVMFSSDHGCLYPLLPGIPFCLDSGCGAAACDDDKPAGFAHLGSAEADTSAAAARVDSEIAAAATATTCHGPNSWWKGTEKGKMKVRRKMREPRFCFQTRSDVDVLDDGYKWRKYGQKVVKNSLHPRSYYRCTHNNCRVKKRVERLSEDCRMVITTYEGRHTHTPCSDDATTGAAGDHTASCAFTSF

The other results are listed elsewhere or left out.

The target of the experiment is OsWRKY34 (Oryza sativa, UniProt Q0JBA9 1-250). In words: protein-binding microarray (RPBM); PBS, 2% BSA, 51.3 ng/ul salmon testes DNA, 50 uM zinc acetate, 200 nM TF, 25 C, 1 h; high values mean tight binding. As to conditions: protein: recombinant; tags: N-terminal polyhistidine and DsRed monomer fusion (pET32a); label: CyDye5-dUTP incorporated in the synthesized complementary strand; 3' TTTTT single-stranded linker to array surface; dsDNA, one strand shown. In outline: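 In PBS with 2% BSA, salmon testes DNA and 50 µM zinc acetate, 200 nM protein was incubated on a custom Agilent array at 25 °C for 1 h and then washed off. The array had been made double-stranded by primer extension with Cy5-dUTP and blocked with 2% BSA. The proteins were transcription factors fused N-terminally to polyhistidine and DsRed, expressed in E. coli BL21-CodonPlus and purified on Ni–NTA. The binding signal is per-feature fluorescence intensity (arbitrary units) from an Axon 4000B scanner.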
As to “TTTATAACATTTATTTCCATATATAAGTTATGCTTACATTCGGAGTCACCTAGTGCAG”, the binding signal is 8440 fluorescence intensity (a.u.).
In the case of “ACCCCGCAGCCTCACCAACTGCGGCAACCTCACCGTCTTGCGGAGTCACCTAGTGCAG” it was 9140 fluorescence intensity (a.u.).
The same measure for “AGTATTTGGTCGGTGGGTGCTCGCACTGCCCCTGGCAGGCCGGAGTCACCTAGTGCAG”: 8400 fluorescence intensity (a.u.).
The same measure for “CCTATAATATCACGGCTGAGGCATTTCTTTAGGTACAAAGCGGAGTCACCTAGTGCAG”: 8050 fluorescence intensity (a.u.).
Take “CATACGAACACATTGTCCCTTTCTTCGTTTATAATTCGAGCGGAGTCACCTAGTGCAG”: the binding signal is 8050 fluorescence intensity (a.u.).
The same measure for “GTGTTTTCTTTTCCGCGTGCCCTTTTTTATGTTACGGATTCGGAGTCACCTAGTGCAG”: 13200 fluorescence intensity (a.u.).
The same measure for “CTTTTTATCTCAAATTTGAAAACTTTCAACTTGGATTTGACGGAGTCACCTAGTGCAG”: 8520 fluorescence intensity (a.u.).
As to “AGGCGCTATCCGGTTGACCAAACCAGCCTACCAACCCGTCCGGAGTCACCTAGTGCAG”, the binding signal is 8350 fluorescence intensity (a.u.).
The same measure for “GTTTCCATTTCTGTTATTTTTTATTTCAAATTTCATTCTTCGGAGTCACCTAGTGCAG”: 11800 fluorescence intensity (a.u.).
“TCCGATTTGTACCGATATGTTTTCATCCGTATTGTTCCGCCGGAGTCACCTAGTGCAG”: the binding signal is 11000 fluorescence intensity (a.u.).
In the case of “CGCCGCTCGTCGTGGTGGGTAGGGGATTCACTGATTTGCTCGGAGTCACCTAGTGCAG” it was 16000 fluorescence intensity (a.u.); in that of “CCATAGCGTCTTCCGTCGAGGTCATGACCGTCTTCAATCTCGGAGTCACCTAGTGCAG”, 8500 fluorescence intensity (a.u.); in that of “GCCCGCTCTGGACCAGATTGCCCTATTTCTCTCCACCACACGGAGTCACCTAGTGCAG”, 9180 fluorescence intensity (a.u.).
In the case of “GGTTCTCTTTTCTTTTCTTTTCTTTTCTCCTGGAGTTTTTCGGAGTCACCTAGTGCAG” it was 9120 fluorescence intensity (a.u.); in that of “TTGCTGCCTTACCATATCCTACTTTATTGCAACCAATTTTCGGAGTCACCTAGTGCAG”, 13400 fluorescence intensity (a.u.).
In the case of “ACCAAGCCACGGACTCCTCTAATTCTCTCTCTTGCTTTCTCGGAGTCACCTAGTGCAG” it was 11700 fluorescence intensity (a.u.); in that of “ACACATTTTGCTAGATCTGTAGTTGTAGACACGCGATATTCGGAGTCACCTAGTGCAG”, 8740 fluorescence intensity (a.u.).
With “GCGGCGAATTCGCCTCTTTCCTTCCGCTTCCGCCTACCTCCGGAGTCACCTAGTGCAG”, the binding signal is 9380 fluorescence intensity (a.u.).
In the case of “GTTTACTTAGATCGAGTTGTTGGGTTTGACAGGTCTGAAACGGAGTCACCTAGTGCAG” it was 11500 fluorescence intensity (a.u.).
In the case of “TTCAACGACGCGCGCGTTCTCACACCTTCTTCCACGCTGACGGAGTCACCTAGTGCAG” it was 9290 fluorescence intensity (a.u.); in that of “AAATGGTGTGTGTAGTGTTCTTCTCCTCCTTCTTGCGGGGCGGAGTCACCTAGTGCAG”, 9870 fluorescence intensity (a.u.).
In the case of “CTAATCATGCAGACACCATATATTAATTCATACTCTTCTTCGGAGTCACCTAGTGCAG” it was 8080 fluorescence intensity (a.u.); in that of “CGTGTCCCGGCACCTCTTGATCGCCATGGTCGTCGACGACCGGAGTCACCTAGTGCAG”, 9660 fluorescence intensity (a.u.).
“GGCAGCCACCCCGCTTGCATCTTCCCTCTACCTACCTACCCGGAGTCACCTAGTGCAG”: the binding signal was 8060 fluorescence intensity (a.u.).
In the case of “TTATTGGTCAAGGGAATATCTATTATTAAAAAATGAGTGTCGGAGTCACCTAGTGCAG” it was 10700 fluorescence intensity (a.u.); in that of “TTCGTGGATTCAAAAGCTTTCACTTGGTACTTCTAATTCTCGGAGTCACCTAGTGCAG”, 8580 fluorescence intensity (a.u.); in that of “CAAAAGCATGTGTGATTTGTTCAGCTGTTCTGTTCGTGTCCGGAGTCACCTAGTGCAG”, 8780 fluorescence intensity (a.u.).
The same measure for “CTCCCTCCCACTCCCCTTTTCGTAATTCCTTCCGCGCTTTCGGAGTCACCTAGTGCAG”: 8150 fluorescence intensity (a.u.); for “CATGTGTGTTGGCGCTGCCAGTGTGTGGGTGGTGGTATATCGGAGTCACCTAGTGCAG”: 8760 fluorescence intensity (a.u.).
Turning to “GGACTTCACCGCATCGGTCAACGGTAACCCTTATGCCAGCCGGAGTCACCTAGTGCAG”, the binding signal was 8490 fluorescence intensity (a.u.).
In the case of “ACTACTCGATCGCCGGCGTCGCGGTCGCCATCCGCCGCATCGGAGTCACCTAGTGCAG” it was 9290 fluorescence intensity (a.u.); in that of “CGTTTTTGTTTCTGAGCATTTCTTCCTCAGTTCAGAGCTACGGAGTCACCTAGTGCAG”, 9320 fluorescence intensity (a.u.); in that of “TCTCCGTGCATCCATCGATCCCGCGGCGACCACCGTTATCCGGAGTCACCTAGTGCAG”, 10200 fluorescence intensity (a.u.).
In the case of “GTTTTTTTTTTTTGGCGCAGGGAGTGGTGGCGTGGTGTGTCGGAGTCACCTAGTGCAG” it was 8170 fluorescence intensity (a.u.); in that of “GTCTCCACGTATTTCTCTCTTCCATAGCAGCAGATGTCCTCGGAGTCACCTAGTGCAG”, 8090 fluorescence intensity (a.u.).
In the case of “ATCTTACTTATTTGGTTTTGGTCCGCATACTGGTAGTATGCGGAGTCACCTAGTGCAG” it was 8490 fluorescence intensity (a.u.); in that of “GCAACATCCATCCGTCCATCCCCGATCCAACGGCCGATCCCGGAGTCACCTAGTGCAG”, 9530 fluorescence intensity (a.u.).
On to “GTCAAACGTTGTTCAAAAAGTCAATGGCGTCATACATTAGCGGAGTCACCTAGTGCAG”, for which the binding signal was 8600 fluorescence intensity (a.u.).
Turning to “AGTATCGCCTTTCGCCGTATATTTCGCCTCACATTTGAACCGGAGTCACCTAGTGCAG”, the binding signal was 10100 fluorescence intensity (a.u.).
In the case of “GCTGTAACCACTAGCCACCCATATATACTGCCATGAGACCCGGAGTCACCTAGTGCAG” it was 8610 fluorescence intensity (a.u.).
The same measure for “GATATCTCGTACCTCATATTACCTCGTGGTACCTCCTCAACGGAGTCACCTAGTGCAG”: 9380 fluorescence intensity (a.u.).
“TTTGTTTTTGTTGTAAGCCCTTTTGCCCATACTATGACCACGGAGTCACCTAGTGCAG”: the binding signal was 12200 fluorescence intensity (a.u.).
